We go through one substance from PMC9223905.

The chains behind the UniProt entries cited, without tags or fusion partners.
UniProt P60323: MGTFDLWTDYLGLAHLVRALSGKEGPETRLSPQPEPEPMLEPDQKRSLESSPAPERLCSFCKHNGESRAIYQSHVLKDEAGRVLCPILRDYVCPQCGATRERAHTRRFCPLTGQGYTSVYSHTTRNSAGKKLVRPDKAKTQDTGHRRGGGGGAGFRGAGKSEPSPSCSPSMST
UniProt Q14671: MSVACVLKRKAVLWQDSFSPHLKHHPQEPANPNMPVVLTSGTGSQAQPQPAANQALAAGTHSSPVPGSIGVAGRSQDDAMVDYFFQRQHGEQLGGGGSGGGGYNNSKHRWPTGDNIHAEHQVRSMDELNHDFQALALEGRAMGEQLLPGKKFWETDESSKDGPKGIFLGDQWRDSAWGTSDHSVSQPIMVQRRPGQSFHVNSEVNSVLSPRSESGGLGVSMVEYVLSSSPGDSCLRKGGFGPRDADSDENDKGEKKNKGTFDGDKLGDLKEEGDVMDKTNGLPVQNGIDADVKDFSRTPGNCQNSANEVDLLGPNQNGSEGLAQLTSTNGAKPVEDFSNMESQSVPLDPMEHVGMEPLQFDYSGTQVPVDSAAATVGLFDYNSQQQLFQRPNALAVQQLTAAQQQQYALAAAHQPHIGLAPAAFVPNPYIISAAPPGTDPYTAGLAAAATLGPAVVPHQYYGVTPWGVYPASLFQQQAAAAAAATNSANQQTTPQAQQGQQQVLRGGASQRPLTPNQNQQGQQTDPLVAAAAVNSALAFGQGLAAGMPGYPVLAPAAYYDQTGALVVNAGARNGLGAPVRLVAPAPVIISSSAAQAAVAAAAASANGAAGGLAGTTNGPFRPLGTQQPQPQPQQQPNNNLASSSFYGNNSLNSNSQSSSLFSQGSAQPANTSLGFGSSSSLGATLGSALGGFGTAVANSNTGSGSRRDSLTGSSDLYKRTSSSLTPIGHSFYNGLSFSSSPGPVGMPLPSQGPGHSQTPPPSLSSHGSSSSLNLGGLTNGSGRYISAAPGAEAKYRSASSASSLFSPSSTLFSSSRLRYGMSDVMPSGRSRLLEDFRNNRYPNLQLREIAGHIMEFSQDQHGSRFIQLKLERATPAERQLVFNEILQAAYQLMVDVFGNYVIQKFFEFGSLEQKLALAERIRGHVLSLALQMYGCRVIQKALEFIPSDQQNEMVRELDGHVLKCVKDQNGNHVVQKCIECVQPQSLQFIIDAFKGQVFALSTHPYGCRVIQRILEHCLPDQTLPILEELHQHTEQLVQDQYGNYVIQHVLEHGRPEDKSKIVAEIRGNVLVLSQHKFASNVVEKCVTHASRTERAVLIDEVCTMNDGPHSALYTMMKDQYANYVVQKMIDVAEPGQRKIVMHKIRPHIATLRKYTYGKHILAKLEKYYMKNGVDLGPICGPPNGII

Assay [1] deals with NANOS3-GST (human) (UniProt P60323). The assay can be described thus: pull-down; NANOS3-GST and PUM1-FLAG overexpressed in TCam-2 cells; 0.3% formaldehyde cross-linking 10 min; lysis in 1% Triton X-100 buffer; RNase A added to the lysate (RNase + sample); Pierce GST beads, 2 h at 4 °C; Western blot. On the technique in general: In western blotting, separated proteins are transferred to a membrane and probed.

The target is the same in assay [2]. The assay can be described thus: pull-down; NANOS3-GST and PUM1-FLAG overexpressed in TCam-2 cells; 0.3% formaldehyde cross-linking 10 min; lysis in 1% Triton X-100 buffer; 1x RNase inhibitors added (RNase - sample); Pierce GST beads, 2 h at 4 °C; Western blot.

No constants are given. Whether binding was seen depends on the method and setting. In cells and extracts the contact can be indirect. Some results given as binding are weak or reduced against the parent protein; the word gives no strength.

As to PUM1-FLAG (from UniProt Q14671 1-1186), the values for the binding result with NANOS3-GST (human) [1] and in the assay with NANOS3-GST (human) [2] were “binds weakly” and “binds”, respectively.
